According to the supplement of paper PMC12823440, “Inhibitors supercharge kinase turnover through native proteolytic circuits” (Nature, 2025):
Some of the results follow. Hit calls seldom repeat between salt and free forms of one compound.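 Kinases, fused to nanoluciferase, were expressed in K562 cells; luminescence was measured every 4 h from 2 to 18 h as percent of control (DMSO = 100%, positive control = 0%). A time point is decreased if signal falls significantly (2 sigma). Hits were called by the authors by a rule that is not shown; the count of time points alone does not decide it.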

By UniProt entry, the sequences of proteins in these tests, tags left out. Where a name states a change or a piece, a line headed by the entry shows the natural chain unless it says otherwise.
UniProt Q00526: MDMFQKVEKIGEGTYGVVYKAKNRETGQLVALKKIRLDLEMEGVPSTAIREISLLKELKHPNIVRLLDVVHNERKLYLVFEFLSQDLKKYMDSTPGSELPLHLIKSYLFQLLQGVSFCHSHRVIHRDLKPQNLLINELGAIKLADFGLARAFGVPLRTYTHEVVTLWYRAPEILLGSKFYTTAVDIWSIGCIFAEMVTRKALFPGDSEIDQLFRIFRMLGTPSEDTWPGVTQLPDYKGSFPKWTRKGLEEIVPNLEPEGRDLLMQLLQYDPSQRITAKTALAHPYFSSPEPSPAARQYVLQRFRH
UniProt Q96KB5: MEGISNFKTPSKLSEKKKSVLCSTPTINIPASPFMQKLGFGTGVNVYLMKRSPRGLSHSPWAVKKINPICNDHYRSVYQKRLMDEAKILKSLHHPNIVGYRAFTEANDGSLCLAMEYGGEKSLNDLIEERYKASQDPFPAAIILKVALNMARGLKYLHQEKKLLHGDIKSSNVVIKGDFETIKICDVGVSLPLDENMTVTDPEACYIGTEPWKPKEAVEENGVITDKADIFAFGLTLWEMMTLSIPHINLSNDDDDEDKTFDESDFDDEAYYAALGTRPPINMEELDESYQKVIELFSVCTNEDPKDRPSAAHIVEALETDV
UniProt Q9UQB9: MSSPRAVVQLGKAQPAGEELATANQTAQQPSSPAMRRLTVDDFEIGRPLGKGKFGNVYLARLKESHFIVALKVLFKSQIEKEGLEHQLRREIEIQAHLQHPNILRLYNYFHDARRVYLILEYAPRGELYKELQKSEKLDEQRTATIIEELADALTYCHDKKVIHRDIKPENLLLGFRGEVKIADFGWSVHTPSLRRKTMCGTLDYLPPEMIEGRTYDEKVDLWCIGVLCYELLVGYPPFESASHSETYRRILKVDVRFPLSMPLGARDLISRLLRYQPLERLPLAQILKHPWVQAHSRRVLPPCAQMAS
UniProt P53350, whole entry: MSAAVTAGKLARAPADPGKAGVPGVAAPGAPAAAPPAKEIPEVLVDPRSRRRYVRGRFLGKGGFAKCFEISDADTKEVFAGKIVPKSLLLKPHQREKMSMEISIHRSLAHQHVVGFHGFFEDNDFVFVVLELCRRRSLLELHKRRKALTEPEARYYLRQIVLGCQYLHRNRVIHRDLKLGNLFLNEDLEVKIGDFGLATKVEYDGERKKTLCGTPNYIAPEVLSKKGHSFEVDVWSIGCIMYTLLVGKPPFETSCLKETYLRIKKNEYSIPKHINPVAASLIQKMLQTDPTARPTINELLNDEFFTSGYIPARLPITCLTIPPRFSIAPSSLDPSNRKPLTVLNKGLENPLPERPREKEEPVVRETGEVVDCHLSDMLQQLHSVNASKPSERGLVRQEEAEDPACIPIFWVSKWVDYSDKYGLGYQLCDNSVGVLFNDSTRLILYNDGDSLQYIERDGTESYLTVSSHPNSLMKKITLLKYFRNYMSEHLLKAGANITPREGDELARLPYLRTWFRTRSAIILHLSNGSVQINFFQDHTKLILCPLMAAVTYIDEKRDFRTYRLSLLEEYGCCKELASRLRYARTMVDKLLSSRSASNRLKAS
UniProt Q15131: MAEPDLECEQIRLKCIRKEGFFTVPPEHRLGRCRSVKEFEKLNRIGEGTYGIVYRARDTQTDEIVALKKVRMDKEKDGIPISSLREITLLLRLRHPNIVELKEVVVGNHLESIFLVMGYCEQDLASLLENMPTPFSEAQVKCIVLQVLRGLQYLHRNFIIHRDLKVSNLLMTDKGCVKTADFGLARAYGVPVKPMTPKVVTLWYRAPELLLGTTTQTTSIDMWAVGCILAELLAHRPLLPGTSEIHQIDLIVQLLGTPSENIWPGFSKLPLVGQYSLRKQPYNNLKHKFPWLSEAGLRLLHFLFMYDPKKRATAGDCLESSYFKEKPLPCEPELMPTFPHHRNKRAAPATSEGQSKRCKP
UniProt P48729: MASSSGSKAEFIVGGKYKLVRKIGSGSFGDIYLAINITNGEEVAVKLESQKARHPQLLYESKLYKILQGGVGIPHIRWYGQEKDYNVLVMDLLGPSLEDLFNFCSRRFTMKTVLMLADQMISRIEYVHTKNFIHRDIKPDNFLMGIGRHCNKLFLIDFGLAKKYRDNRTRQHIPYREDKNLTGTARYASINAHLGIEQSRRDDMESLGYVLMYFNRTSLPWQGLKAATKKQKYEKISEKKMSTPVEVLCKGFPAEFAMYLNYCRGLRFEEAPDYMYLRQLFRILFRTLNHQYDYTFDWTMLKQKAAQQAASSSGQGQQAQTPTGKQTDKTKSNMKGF
UniProt P42680: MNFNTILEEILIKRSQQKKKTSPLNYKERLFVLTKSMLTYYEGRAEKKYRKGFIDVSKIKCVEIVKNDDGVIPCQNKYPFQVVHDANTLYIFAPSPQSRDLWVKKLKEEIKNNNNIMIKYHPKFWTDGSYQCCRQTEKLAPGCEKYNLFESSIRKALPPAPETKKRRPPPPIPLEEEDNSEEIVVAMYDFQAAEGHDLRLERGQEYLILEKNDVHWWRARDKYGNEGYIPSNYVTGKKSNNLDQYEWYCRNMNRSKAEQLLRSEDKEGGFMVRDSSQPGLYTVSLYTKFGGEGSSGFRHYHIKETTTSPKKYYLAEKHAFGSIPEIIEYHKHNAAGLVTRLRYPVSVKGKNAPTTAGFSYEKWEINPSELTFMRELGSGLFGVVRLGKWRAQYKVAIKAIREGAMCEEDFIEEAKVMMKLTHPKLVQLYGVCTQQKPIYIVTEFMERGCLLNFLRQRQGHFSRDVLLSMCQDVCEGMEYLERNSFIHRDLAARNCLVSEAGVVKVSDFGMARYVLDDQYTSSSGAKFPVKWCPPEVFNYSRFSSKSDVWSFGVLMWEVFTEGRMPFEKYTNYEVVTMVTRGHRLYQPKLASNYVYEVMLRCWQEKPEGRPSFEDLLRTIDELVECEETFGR
UniProt P42356, whole entry, looked up: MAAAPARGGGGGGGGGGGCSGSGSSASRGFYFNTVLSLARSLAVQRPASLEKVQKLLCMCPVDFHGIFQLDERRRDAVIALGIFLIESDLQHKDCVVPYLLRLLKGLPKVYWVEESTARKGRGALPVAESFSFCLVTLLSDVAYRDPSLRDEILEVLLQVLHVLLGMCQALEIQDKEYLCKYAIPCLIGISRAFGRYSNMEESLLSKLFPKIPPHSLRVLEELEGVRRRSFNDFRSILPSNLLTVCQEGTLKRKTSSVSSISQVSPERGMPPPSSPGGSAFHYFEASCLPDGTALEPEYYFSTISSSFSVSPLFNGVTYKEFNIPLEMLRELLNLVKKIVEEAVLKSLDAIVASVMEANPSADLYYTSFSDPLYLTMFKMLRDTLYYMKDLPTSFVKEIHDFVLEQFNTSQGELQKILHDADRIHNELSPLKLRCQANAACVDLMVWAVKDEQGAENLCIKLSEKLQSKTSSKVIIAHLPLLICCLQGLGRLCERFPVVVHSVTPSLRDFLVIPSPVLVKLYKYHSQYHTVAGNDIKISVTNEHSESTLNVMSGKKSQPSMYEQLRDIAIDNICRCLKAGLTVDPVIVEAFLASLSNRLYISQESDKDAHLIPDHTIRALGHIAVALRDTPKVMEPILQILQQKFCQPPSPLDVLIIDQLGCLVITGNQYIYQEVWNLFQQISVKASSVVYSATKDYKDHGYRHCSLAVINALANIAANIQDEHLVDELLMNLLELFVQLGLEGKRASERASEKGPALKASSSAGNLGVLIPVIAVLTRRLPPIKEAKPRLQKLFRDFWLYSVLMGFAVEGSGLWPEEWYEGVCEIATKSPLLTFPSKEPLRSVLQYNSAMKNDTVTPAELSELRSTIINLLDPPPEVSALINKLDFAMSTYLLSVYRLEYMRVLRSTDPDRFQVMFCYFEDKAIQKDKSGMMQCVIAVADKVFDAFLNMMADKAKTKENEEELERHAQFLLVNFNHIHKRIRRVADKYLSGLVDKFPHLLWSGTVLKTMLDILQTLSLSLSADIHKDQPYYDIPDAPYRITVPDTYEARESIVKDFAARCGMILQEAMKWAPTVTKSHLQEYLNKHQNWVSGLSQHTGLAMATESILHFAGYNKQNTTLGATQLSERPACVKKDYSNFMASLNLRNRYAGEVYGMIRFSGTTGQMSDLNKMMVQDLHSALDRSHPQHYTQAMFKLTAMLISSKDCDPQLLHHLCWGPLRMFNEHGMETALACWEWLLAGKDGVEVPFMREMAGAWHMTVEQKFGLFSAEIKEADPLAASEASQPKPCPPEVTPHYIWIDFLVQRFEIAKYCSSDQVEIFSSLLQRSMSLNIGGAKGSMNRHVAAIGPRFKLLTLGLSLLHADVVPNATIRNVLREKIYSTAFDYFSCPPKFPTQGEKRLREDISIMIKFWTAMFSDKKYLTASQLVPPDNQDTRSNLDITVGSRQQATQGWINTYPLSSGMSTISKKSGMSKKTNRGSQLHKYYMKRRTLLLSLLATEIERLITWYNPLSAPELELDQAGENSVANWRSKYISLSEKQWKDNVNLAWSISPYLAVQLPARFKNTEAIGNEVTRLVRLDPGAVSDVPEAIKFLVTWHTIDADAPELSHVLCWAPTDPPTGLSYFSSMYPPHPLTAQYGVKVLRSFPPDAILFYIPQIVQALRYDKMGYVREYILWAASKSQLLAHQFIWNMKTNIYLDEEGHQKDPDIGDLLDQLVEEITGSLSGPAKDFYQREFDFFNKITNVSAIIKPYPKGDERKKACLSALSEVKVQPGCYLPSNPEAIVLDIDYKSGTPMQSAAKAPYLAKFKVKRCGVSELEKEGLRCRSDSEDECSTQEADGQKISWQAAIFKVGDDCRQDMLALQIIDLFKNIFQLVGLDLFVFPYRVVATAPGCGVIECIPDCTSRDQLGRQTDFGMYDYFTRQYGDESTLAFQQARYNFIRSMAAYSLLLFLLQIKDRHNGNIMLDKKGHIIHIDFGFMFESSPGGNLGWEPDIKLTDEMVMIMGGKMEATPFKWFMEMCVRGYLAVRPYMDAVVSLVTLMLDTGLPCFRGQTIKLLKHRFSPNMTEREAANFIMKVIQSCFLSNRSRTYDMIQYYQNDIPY
UniProt Q92630: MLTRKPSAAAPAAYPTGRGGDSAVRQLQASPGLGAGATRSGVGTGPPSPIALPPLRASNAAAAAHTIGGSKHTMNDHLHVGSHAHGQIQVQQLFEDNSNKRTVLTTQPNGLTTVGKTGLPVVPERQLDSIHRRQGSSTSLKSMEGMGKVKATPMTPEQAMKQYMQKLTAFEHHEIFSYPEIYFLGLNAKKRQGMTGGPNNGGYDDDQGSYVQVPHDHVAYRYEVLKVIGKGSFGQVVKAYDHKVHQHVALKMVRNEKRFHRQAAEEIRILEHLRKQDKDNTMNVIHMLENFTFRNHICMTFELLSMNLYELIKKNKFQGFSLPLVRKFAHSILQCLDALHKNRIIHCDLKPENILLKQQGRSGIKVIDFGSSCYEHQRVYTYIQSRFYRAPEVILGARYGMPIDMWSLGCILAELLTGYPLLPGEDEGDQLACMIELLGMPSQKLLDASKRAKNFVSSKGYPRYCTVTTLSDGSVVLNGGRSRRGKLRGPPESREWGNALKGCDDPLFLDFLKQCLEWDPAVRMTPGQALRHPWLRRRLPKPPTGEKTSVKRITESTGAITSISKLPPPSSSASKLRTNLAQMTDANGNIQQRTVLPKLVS
UniProt P07947, whole entry, looked up: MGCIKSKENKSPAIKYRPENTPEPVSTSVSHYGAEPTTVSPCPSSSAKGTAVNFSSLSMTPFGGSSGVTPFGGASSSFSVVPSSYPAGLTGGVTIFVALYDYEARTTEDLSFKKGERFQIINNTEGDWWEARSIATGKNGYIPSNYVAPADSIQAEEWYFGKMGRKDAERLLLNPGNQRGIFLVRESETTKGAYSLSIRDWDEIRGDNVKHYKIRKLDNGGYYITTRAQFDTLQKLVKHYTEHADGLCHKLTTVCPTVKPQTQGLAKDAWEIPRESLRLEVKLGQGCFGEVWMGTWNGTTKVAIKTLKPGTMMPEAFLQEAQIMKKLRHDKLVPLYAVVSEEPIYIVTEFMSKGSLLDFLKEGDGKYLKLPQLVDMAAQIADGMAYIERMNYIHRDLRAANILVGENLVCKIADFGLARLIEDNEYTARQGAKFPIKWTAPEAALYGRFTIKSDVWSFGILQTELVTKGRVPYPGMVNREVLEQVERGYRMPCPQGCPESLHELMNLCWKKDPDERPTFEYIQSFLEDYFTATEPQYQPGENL
UniProt Q6PHR2: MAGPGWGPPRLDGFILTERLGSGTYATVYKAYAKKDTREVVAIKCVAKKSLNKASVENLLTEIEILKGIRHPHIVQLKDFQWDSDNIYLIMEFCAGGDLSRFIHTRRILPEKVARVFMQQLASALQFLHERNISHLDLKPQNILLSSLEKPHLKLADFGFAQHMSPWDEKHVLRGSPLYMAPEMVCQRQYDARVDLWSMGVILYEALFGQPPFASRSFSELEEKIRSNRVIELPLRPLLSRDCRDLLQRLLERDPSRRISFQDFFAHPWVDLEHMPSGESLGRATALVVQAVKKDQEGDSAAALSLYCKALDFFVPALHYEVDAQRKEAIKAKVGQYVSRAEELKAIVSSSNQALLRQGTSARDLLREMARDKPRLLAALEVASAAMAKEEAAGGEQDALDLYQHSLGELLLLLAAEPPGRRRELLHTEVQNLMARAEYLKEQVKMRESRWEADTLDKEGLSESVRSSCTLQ

What was measured:
Assay in all cases: number of time points (of 5) at which kinase-Nluc abundance scored as decreased, DMSO-normalised (count); higher = more persistent destabilization
Lorlatinib = compound: C[C@H]1Oc2cc(cnc2N)-c2c(nn(C)c2C#N)CN(C)C(=O)c2ccc(F)cc21 [Lorlatinib]; details: 10 µM; K562; 2-18 h
[1] = compound: Cc1[nH]c(/C=C2\C(=O)Nc3ccc(F)cc32)c(C)c1C(=O)NC[C@H](O)CN1CCOCC1; details: 2.5 µM; K562; 2-18 h
[2] = compound: Cc1cc(C)n2c1C=C1C=CC(CCC(=O)NCCN3CCN(C/C=C/C(=O)N4CCCC(n5nc(-c6ccc(Oc7ccccc7)cc6)c6c(N)ncnc65)C4)CC3)=[N+]1[B-]2(F)F; details: 2.5 µM; K562; 2-18 h
ENMD-2076 (Tartrate) = compound: Cc1cc(Nc2cc(N3CCN(C)CC3)nc(/C=C/c3ccccc3)n2)n[nH]1 [ENMD-2076 (Tartrate)]; details: 2.5 µM; K562; 2-18 h
[3] = compound: Cc1cc(Nc2cc(N3CCN(C)CC3)nc(/C=C/c3ccccc3)n2)n[nH]1; details: 2.5 µM; K562; 2-18 h
Brivanib = compound: Cc1cc2c(F)c(Oc3ncnn4cc(OC[C@@H](C)O)c(C)c34)ccc2[nH]1 [Brivanib]; details: 10 µM; K562; 2-18 h
[4] = compound: Cc1cc2ncnn2cc1Nc1ncc2c(n1)n(C1CCOCC1)c(=O)n2C; details: 10 µM; K562; 2-18 h
Doramapimod = compound: Cc1ccc(-n2nc(C(C)(C)C)cc2NC(=O)Nc2ccc(OCCN3CCOCC3)c3ccccc23)cc1 [Doramapimod]; details: 10 µM; K562; 2-18 h
[5] = compound: Cc1ccc(Nc2nccc(N(C)c3ccc4c(C)n(C)nc4c3)n2)cc1S(N)(=O)=O [Pazopanib (Hydrochloride)]; details: 10 µM; K562; 2-18 h
Pazopanib = compound: Cc1ccc(Nc2nccc(N(C)c3ccc4c(C)n(C)nc4c3)n2)cc1S(N)(=O)=O [Pazopanib]; details: 10 µM; K562; 2-18 h
Lck inhibitor 2 = compound: Cc1ccc(O)cc1Nc1ccnc(Nc2cccc(C(N)=O)c2)n1 [Lck inhibitor 2]; details: 10 µM; K562; 2-18 h
Vadimezan = compound: Cc1ccc2c(=O)c3cccc(CC(=O)O)c3oc2c1C [Vadimezan]; details: 10 µM; K562; 2-18 h
Nilotinib = compound: Cc1cn(-c2cc(NC(=O)c3ccc(C)c(Nc4nccc(-c5cccnc5)n4)c3)cc(C(F)(F)F)c2)cn1 [Nilotinib]; details: 2.5 µM; K562; 2-18 h
[6] = compound: Cc1cnc(Nc2ccc(OCCN3CCCC3)cc2)nc1Nc1cccc(S(=O)(=O)NC(C)(C)C)c1 [Fedratinib (hydrochloride hydrate)]; details: 2.5 µM; K562; 2-18 h
Fedratinib = compound: Cc1cnc(Nc2ccc(OCCN3CCCC3)cc2)nc1Nc1cccc(S(=O)(=O)NC(C)(C)C)c1 [Fedratinib]; details: 2.5 µM; K562; 2-18 h
Dasatinib = compound: Cc1nc(Nc2ncc(C(=O)Nc3c(C)cccc3Cl)s2)cc(N2CCN(CCO)CC2)n1 [Dasatinib]; details: 2.5 µM; K562; 2-18 h
[7] = compound: Cn1cc(/C=C2\C(=O)Nc3cccnc32)c2ccccc21; details: 10 µM; K562; 2-18 h
[8] = compound: Fc1ccc(-c2nc(-c3ccc4ccccc4c3F)[nH]c2-c2ccncc2)cc1; details: 10 µM; K562; 2-18 h
[9] = compound: Cc1ccccc1-n1c(Cn2nc(-c3cccc(O)c3)c3c(N)ncnc32)nc2cccc(C)c2c1=O; details: 10 µM; K562; 2-18 h
[10] = compound: Cc1nc2c(-c3cnc(N)nc3)nc(N3CCOCC3)nc2n1C(C)C; details: 2.5 µM; K562; 2-18 h

Row | Target | number of time points (Lorlatinib) | number of time points [1] | number of time points [2] | number of time points (ENMD-2076 (Tartrate)) | number of time points [3] | number of time points (Brivanib) | number of time points [4] | number of time points (Doramapimod) | number of time points [5] | number of time points (Pazopanib) | number of time points (Lck inhibitor 2) | number of time points (Vadimezan) | number of time points (Nilotinib) | number of time points [6] | number of time points (Fedratinib) | number of time points (Dasatinib) | number of time points [7] | number of time points [8] | number of time points [9] | number of time points [10]
1 | IRAK3 (UniProt Q9Y616) | 0 | 0 | 0 | 0 | 0 | 0 | 0 | 0 | 0 | 0 | 0 | 0 | 2 | 0 | 0 | 2 | 0 | 0 | – | –
2 | CDK3 (UniProt Q00526) | 0 | 0 | 0 | 0 | 0 | 0 | 0 | 0 | 0 | 0 | 0 | 0 | 0 | 0 | 0 | 0 | 0 | 0 | – | –
3 | BRAF_V600E | 0 | 0 | 0 | 0 | 0 | 0 | 0 | 0 | 0 | 1 | 0 | 0 | 2 | 0 | 0 | 2 | 0 | 5 | 0 | 2
4 | HER2 (UniProt P04626) | 0 | 0 | 0 | 0 | 0 | 0 | 0 | 0 | 0 | 0 | 0 | 0 | 2 | 0 | 0 | 1 | 0 | 5 | – | –
5 | ERBB4_R711C (clone: ERBB4_mut) (UniProt Q15303) | 0 | 0 | 0 | 0 | 1 | 0 | 0 | 0 | 0 | 0 | 0 | 0 | 2 | 0 | 0 | 3 | 0 | 4 | – | –
6 | GSK3A (UniProt P49840) | 0 | 0 | 0 | 0 | 0 | 0 | 0 | 0 | 0 | 0 | 0 | 0 | 1 | 0 | 0 | 0 | 0 | 0 | – | –
7 | PBK (UniProt Q96KB5) | 0 | 0 | 0 | 0 | 0 | 0 | 0 | 0 | 0 | 0 | 0 | 0 | 0 | 0 | 0 | 0 | 0 | 0 | – | –
8 | NTRK2 (UniProt Q16620) | 0 | 0 | 0 | 0 | 0 | 0 | 0 | 0 | 0 | 0 | 0 | 0 | 2 | 0 | 0 | 1 | 0 | 0 | – | –
9 | AURKC (UniProt Q9UQB9) | 0 | 0 | 0 | 0 | 0 | 0 | 0 | 0 | 0 | 0 | 0 | 0 | 4 | 0 | 0 | 5 | 0 | 0 | – | –
10 | ROR2 (UniProt Q01974) | 0 | 0 | 0 | 0 | 0 | 0 | 0 | 0 | 0 | 0 | 0 | 0 | 1 | 0 | 0 | 0 | 0 | 0 | – | –
11 | SPHK1 (UniProt Q9NYA1) | 0 | 0 | 0 | 0 | 0 | 0 | 0 | 0 | 0 | 0 | 0 | 0 | 1 | 0 | 0 | 0 | 0 | 0 | – | –
12 | MAP2K2 (UniProt P36507) | 0 | 0 | 0 | 0 | 0 | 0 | 0 | 0 | 0 | 0 | 0 | 0 | 0 | 0 | 0 | 0 | 0 | 0 | – | –
13 | PLK1 (UniProt P53350) | 0 | 0 | 0 | 0 | 0 | 0 | 0 | 0 | 0 | 0 | 0 | 0 | 2 | 0 | 0 | 2 | 0 | 0 | – | –
14 | PIK4CB (UniProt Q9UBF8) | 0 | 0 | 0 | 0 | 0 | 0 | 0 | 0 | 0 | 0 | 0 | 0 | 2 | 0 | 0 | 2 | 0 | 1 | – | –
15 | CDK10 (UniProt Q15131) | 0 | 0 | 0 | 0 | 0 | 0 | 0 | 0 | 0 | 0 | 0 | 0 | 1 | 0 | 0 | 1 | 0 | 5 | – | –
16 | ERBB3 (UniProt P21860) | 0 | 0 | 0 | 0 | 0 | 0 | 0 | 0 | 0 | 0 | 0 | 0 | 4 | 0 | 0 | 3 | 0 | 4 | – | –
17 | CSNK1A1 (UniProt P48729) | 0 | 0 | 0 | 0 | 0 | 0 | 0 | 0 | 0 | 0 | 0 | 0 | 4 | 0 | 0 | 1 | 0 | 0 | – | –

Row | Target | number of time points (Lorlatinib) | number of time points [1] | number of time points [2] | number of time points (ENMD-2076 (Tartrate)) | number of time points [3] | number of time points (Brivanib) | number of time points [4] | number of time points (Doramapimod) | number of time points [5] | number of time points (Pazopanib) | number of time points (Lck inhibitor 2) | number of time points (Vadimezan) | number of time points (Nilotinib) | number of time points [6] | number of time points (Fedratinib) | number of time points (Dasatinib) | number of time points [7] | number of time points [8] | number of time points [9] | number of time points [10]
18 | CDK6 (UniProt Q00534) | 0 | 5 | 0 | 0 | 0 | 0 | 0 | 0 | 0 | 0 | 0 | 0 | 2 | 0 | 0 | 0 | 0 | 0 | – | –
19 | PRKCA (UniProt P17252) | 0 | 0 | 0 | 0 | 0 | 0 | 0 | 0 | 0 | 0 | 0 | 0 | 0 | 0 | 0 | 0 | 0 | 0 | – | –
20 | TEC (UniProt P42680) | 0 | 0 | 0 | 0 | 0 | 0 | 0 | 0 | 0 | 0 | 0 | 0 | 2 | 0 | 0 | 3 | 0 | 0 | – | –
21 | ERN1 (UniProt O75460) | 0 | 0 | 0 | 0 | 0 | 0 | 0 | 0 | 0 | 0 | 0 | 0 | 1 | 0 | 0 | 1 | 0 | 0 | – | –
22 | RIOK1 (UniProt Q9BRS2) | 0 | 0 | 0 | 0 | 0 | 0 | 0 | 0 | 0 | 0 | 0 | 0 | 2 | 0 | 0 | 2 | 0 | 4 | – | –
23 | PIK4CA (UniProt P42356) | 0 | 0 | 0 | 0 | 0 | 0 | 0 | 0 | 0 | 0 | 0 | 0 | 3 | 0 | 0 | 2 | 0 | 2 | – | –
24 | LMTK2 (UniProt Q8IWU2) | 0 | 0 | 0 | 0 | 0 | 0 | 0 | 0 | 0 | 0 | 0 | 0 | 1 | 0 | 0 | 1 | 0 | 4 | – | –
25 | PDPK1 (UniProt O15530) | 0 | 0 | 0 | 0 | 0 | 0 | 0 | 0 | 0 | 0 | 0 | 0 | 4 | 0 | 0 | 3 | 0 | 0 | – | –
26 | ARAF (UniProt P10398) | 0 | 0 | 0 | 0 | 0 | 0 | 0 | 0 | 0 | 0 | 0 | 0 | 0 | 0 | 0 | 0 | 0 | 0 | – | –
27 | DYRK2 (UniProt Q92630) | 0 | 0 | 0 | 2 | 0 | 0 | 0 | 0 | 0 | 0 | 3 | 0 | 3 | 0 | 0 | 3 | 0 | 4 | – | –
28 | YES1 (UniProt P07947) | 0 | 0 | 0 | 0 | 0 | 0 | 0 | 0 | 0 | 0 | 0 | 0 | 1 | 0 | 0 | 3 | 0 | 0 | – | –
29 | DYRK1B (UniProt Q9Y463) | 0 | 0 | 0 | 0 | 0 | 0 | 0 | 0 | 0 | 0 | 0 | 0 | 1 | 0 | 0 | 1 | 0 | 0 | – | –
30 | PRKAA1 (UniProt Q13131) | 0 | 0 | 0 | 0 | 0 | 0 | 0 | 0 | 0 | 0 | 0 | 0 | 2 | 0 | 0 | 1 | 0 | 4 | – | –
31 | ULK3 (UniProt Q6PHR2) | 0 | 0 | 0 | 0 | 0 | 0 | 0 | 0 | 0 | 0 | 1 | 0 | 4 | 0 | 0 | 3 | 0 | 4 | – | –
32 | CAMK2A (UniProt Q9UQM7) | 0 | 1 | 0 | 0 | 0 | 0 | 0 | 0 | 0 | 0 | 0 | 0 | 0 | 0 | 0 | 0 | 0 | 0 | – | –
33 | RAF1 (UniProt P04049) | 0 | 0 | 0 | 0 | 0 | 0 | – | 0 | 0 | 0 | 0 | 0 | 3 | 0 | 0 | 2 | 0 | – | – | –

Quoted from above: nos. 18–20
Row | Target | number of time points (Lorlatinib) | number of time points [1] | number of time points [2] | number of time points (ENMD-2076 (Tartrate)) | number of time points [3] | number of time points (Brivanib) | number of time points [4] | number of time points (Doramapimod) | number of time points [5] | number of time points (Pazopanib) | number of time points (Lck inhibitor 2) | number of time points (Vadimezan) | number of time points (Nilotinib) | number of time points [6] | number of time points (Fedratinib) | number of time points (Dasatinib) | number of time points [7] | number of time points [8] | number of time points [9] | number of time points [10]
18 | CDK6 (UniProt Q00534) | 0 | 5 | 0 | 0 | 0 | 0 | 0 | 0 | 0 | 0 | 0 | 0 | 2 | 0 | 0 | 0 | 0 | 0 | – | –
19 | PRKCA (UniProt P17252) | 0 | 0 | 0 | 0 | 0 | 0 | 0 | 0 | 0 | 0 | 0 | 0 | 0 | 0 | 0 | 0 | 0 | 0 | – | –
20 | TEC (UniProt P42680) | 0 | 0 | 0 | 0 | 0 | 0 | 0 | 0 | 0 | 0 | 0 | 0 | 2 | 0 | 0 | 3 | 0 | 0 | – | –
